Values quoted from earlier work in patent US11052043B2, “Sustained-release injectable formulation” (YISSUM RESEARCH DEVELOPMENT COMPANY OF THE HEBREW …, priority 2011, dated 2021).
≈ marks a conversion by molar mass, not a printed value. For at least one compound, name, drawing or mass did not settle the structure.

System: Chlamydia psittaci
Details: cited from earlier work

Q: For `C[C@H]1c2cccc(O)c2C(=O)C2=C(O)[C@]3(O)C(=O)C(C(N)=O)=C(O)[C@@H](N(C)C)[C@@H]3[C@@H](O)[C@@H]21` [doxycycline], which MIC average is on record?
A: 0.1 µg/mL (≈ 0.225 µM)
